{
  "source": "patent US20080287649",
  "about": "(published 2008)",
  "experiment": "general procedure: Fmoc solid-phase peptide synthesis; Fmoc Rink Amide MBHA resin",
  "conditions": "1:1 trifluoroacetate; for crude HPLC purity / crude purity (method not given): whole synthesis",
  "data": [
    {"substance": "Cyclo (Asp-Lys) Pentanoyl-Asp-(4-MeO-Apc)-D-Phe-Arg-Lys-NH2 1:1 Trifluoroacetate", "values": [
      {"measurement": "final purity (method not given)", "setting": "purification step, % AN, assay % w/w", "result": 94, "unit": "%"},
      {"measurement": "step yield", "setting": "purification step, overall contained yield", "result": 85, "unit": "%"},
      {"measurement": "crude HPLC purity", "setting": "% AN, run 1", "result": 30.70, "unit": "%"},
      {"measurement": "crude HPLC purity", "setting": "% AN, run 2", "result": 46.30, "unit": "%"},
      {"measurement": "crude HPLC purity", "setting": "% AN, run 3", "result": 45.30, "unit": "%"},
      {"measurement": "crude purity (method not given)", "setting": "% AN, assay % w/w, run 1", "result": 8, "unit": "%"},
      {"measurement": "crude purity (method not given)", "setting": "% AN, assay % w/w, run 2", "result": 10, "unit": "%"}
    ]}
  ]
}
